Measurements taken from patent US8618066B1 (priority 2003, dated 2013).
Some of these results come from one statement about several compounds together. Some ranges recur; such a range may be that of the whole group of compounds.

What follows are substances tested on E. amylovora, E. carotovora, E. coli, R. solanocerum, S. aureus, and S. faecalis. Details: standard media; range over the listed bacteria and peptides.
Format: cell-based

Substance | MIC [mg/mL]
FRLKFHF [SEQ ID No. 197] | 20 to 1700
FRLHF [SEQ ID No. 199] | 20 to 1700
FRLKHI [SEQ ID No. 198] | 20 to 1700
